PMC9688159 (Cancers, 2022)

What was measured:
Assay in all cases: cell viability (MTS)
Assay type in all cases: cell-based
Capan-1 cells = conditions: Homo sapiens
Source text: (§1) Pancreatic carcinoma cell lines, PANC-1 (ACC 783), BxPC-3 (ACC 760), and Capan-1 (ACC 244), were obtained from DSMZ (Braunschweig, Germany). Normal human fibroblasts (NHF; 106-05A) were purchased from Sigma-Aldrich (Poznan, Poland). PANC-1 and NHF cells were maintained in DMEM containing 10% fetal bovine serum (FBS) and 1% antibiotic solution. BxPC-3 and Capan-1 cells were maintained in […] with 15% FBS and 1% penicillin/streptomycin solution. Cells were regularly tested for mycoplasma contamination.
(§2) In all experiments, cells were seeded in 96-well plates at a density of 4 × 10^3 (PANC-1, BxPC-3), 5 × 10^3 (Capan-1), and 2 × 10^3 (NHF) cells per well. Plates were incubated for 24 h at 37 °C.
(§3) To evaluate the effect of each compound on cell viability, cells were treated with different concentrations (0–60 µM) of tested compounds for 24, 48, and 72 h. Next, 20 µL of MTS solution was added to each well. Plates were incubated for 2 h at 37 °C. The absorbance was measured at 490 nm. Untreated cells served as a negative control. The number of viable cells is directly proportional to the intensity of color produced. Cell viability is expressed as a percentage of control cells.
(§4) To evaluate the activity of the compounds after blocking DRD2, cells were incubated with risperidone (10 µM) for 2 h at 37 °C. Next, the medium was removed and a fresh medium containing tested compounds (at a concentration of 0–60 µM) was added. Plates were incubated for a further 24 h. Next, 20 µL of MTS solution was added to each well, and incubation was started (for 2 h at 37 °C). The absorbance was measured at 490 nm. Untreated cells served as a negative control.

BxPC-3 cells = conditions: Homo sapiens
Source text: as §1, §2, §3, §4

PANC-1 cells = conditions: Homo sapiens
Source text: as §1, §2, §3, §4

[1] = tested on: normal human fibroblasts (NHF); conditions: Fibroblast
Source text: as §1, §2, §3, §4

Measured: IC50

Cc1nc2n(c(=O)c1CCN1CCC(c3noc4cc(F)ccc34)CC1)CCCC2 [Risperidone]
> 60 µM: Capan-1 cells; CAPAN-1, 24 h | Capan-1 cells; CAPAN-1, 48 h | Capan-1 cells; CAPAN-1, 72 h | BxPC-3 cells; BXPC-3, 24 h | BxPC-3 cells; BXPC-3, 48 h | BxPC-3 cells; BXPC-3, 72 h | PANC-1 cells; PANC-1, 24 h | PANC-1 cells; PANC-1, 48 h | PANC-1 cells; PANC-1, 72 h | [1]; 24 h | [1]; 48 h | [1]; 72 h
